In patent publication US20260256799A1, “INHIBITORS FOR TREATING SOLID TUMOURS” (UNIVERSITY OF SOUTHAMPTON, priority 2023, published 2026):
At least one compound was matched to its structure with a doubt left.

Test system: HFFF2 fibroblasts
Experiment: TGF-β1-induced myofibroblast differentiation of fibroblasts (Western blotting, immunofluorescence, Q-RT-PCR, collagen gel contraction)
Assay type: cell-based, human
Details: Mirin 40 μM + TGF-β1 72 hours
Protocol: Human NSCLC cell line H441, HNSCC SCC25, murine cancer cell line TC-1 (lung), MC38 (colon) and human fetal foreskin fibroblasts HFFF2 were purchased from European Collection of Cell Cultures (Public Health England) or ATCC; HNSCC 5PT [32] were provided by l. Mackenzie (Queen Mary University of London, UK). HEK-293T cells and IMR90 lung fibroblasts were provided by Jesus Gil (Imperial College, London, UK). SCC25 were grown in Ham's F12:DMEM (1:1 ratio) medium with 10% FBS (Calbiochem) and 292 μg/ml L-Glutamine. 5PT were cultured in keratinocyte growth medium. HEK-293T, H441, MC38, HFFF2, IMR90 and primary fibroblasts were grown in DMEM supplemented with 10% FBS and 292 μg/ml L-Glutamine. Primary fibroblasts were isolated as previously used at early passage (p1-10). C57BL/6 murine normal lung and colon fibroblasts (MLF and MCF respectively) were grown at 3% oxygen. TC-1 were cultured in RPMI supplemented with 10% FBS and 292 μg/ml L-Glutamine. All cell cultures were routinely tested for mycoplasma contamination. […]
5×10^3 HFFF2 were plated on permanox chamber slides (Thermo Scientific) and treated as described in the figure legends. […] Images were taken using an Olympus IX81 fluorescence microscope and Xcellence program. DNA Damage foci were quantified from at least 8 non-overlapping FoV with ~300 cells in total per condition. […] SMA and Collagen 1A1 quantification was performed using Fiji. […]

N=C1NC(=O)/C(=C/c2ccc(O)cc2)S1 [Mirin] was tested, and the myofibroblast differentiation was “suppressed”.
